PMC11044369
These are yes or no findings as the source states them, for the method shown. Binding seen in cells or lysates may run through a third protein. Some binding calls cover weakened binding; strength is not graded here.

Protein sequences, listed by entry. Tags and fused reporters are not part of them.
UniProt Q96FF9: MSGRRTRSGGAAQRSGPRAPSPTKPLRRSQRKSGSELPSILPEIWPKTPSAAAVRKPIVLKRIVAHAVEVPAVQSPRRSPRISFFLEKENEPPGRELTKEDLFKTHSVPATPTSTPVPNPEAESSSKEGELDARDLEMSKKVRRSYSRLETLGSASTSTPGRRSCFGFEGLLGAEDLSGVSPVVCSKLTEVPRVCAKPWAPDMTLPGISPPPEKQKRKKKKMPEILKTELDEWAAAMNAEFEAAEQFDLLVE
UniProt P68104: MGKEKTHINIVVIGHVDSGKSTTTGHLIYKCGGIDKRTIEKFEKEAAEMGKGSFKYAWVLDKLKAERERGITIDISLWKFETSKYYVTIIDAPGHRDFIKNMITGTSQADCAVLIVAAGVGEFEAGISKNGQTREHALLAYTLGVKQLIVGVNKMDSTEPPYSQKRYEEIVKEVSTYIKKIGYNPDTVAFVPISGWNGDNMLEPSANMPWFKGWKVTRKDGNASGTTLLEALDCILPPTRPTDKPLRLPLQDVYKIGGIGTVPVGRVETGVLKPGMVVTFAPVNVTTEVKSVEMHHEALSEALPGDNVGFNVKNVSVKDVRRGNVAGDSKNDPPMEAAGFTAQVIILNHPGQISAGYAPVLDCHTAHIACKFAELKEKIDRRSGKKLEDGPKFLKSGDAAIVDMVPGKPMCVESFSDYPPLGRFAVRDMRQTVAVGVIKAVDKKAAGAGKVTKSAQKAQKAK

Biological target: FLAG-CDCA5 (cell division cycle associated 5) (human) (UniProt Q96FF9)
Experiment: co-IP; lysate of ACHN cells overexpressing FLAG-CDCA5; immunoprecipitation with anti-FLAG antibody, western blot of the candidates

binding: binds
Substance: Eukaryotic Translation Elongation Factor 1 Alpha 1 (EEF1A1) (from UniProt P68104 1-462)
